Experimental data from the supplement of paper PMC12067093, “Discovery and optimisation of a covalent ligand for TRIM25 and its application to targeted protein ubiquitination” (Chemical Science, 2025).
This is one part of the list.

By UniProt entry, the sequences of proteins in these tests, tags left out. Where a name states a change or a piece, a line headed by the entry shows the natural chain unless it says otherwise.
UniProt P48643, whole entry, looked up: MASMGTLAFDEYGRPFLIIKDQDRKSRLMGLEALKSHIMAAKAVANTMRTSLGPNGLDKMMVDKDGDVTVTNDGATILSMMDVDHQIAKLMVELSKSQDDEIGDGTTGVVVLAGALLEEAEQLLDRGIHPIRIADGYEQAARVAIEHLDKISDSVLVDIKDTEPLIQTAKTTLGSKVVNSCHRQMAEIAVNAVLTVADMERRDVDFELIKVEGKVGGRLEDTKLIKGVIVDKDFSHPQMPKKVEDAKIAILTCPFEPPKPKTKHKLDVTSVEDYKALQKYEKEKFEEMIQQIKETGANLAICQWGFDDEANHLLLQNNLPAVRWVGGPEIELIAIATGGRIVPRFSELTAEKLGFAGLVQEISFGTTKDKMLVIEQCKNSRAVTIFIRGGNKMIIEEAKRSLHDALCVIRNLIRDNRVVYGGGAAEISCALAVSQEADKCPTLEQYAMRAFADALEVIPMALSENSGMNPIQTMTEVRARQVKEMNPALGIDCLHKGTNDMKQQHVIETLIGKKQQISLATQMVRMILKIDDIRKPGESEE
UniProt P15529: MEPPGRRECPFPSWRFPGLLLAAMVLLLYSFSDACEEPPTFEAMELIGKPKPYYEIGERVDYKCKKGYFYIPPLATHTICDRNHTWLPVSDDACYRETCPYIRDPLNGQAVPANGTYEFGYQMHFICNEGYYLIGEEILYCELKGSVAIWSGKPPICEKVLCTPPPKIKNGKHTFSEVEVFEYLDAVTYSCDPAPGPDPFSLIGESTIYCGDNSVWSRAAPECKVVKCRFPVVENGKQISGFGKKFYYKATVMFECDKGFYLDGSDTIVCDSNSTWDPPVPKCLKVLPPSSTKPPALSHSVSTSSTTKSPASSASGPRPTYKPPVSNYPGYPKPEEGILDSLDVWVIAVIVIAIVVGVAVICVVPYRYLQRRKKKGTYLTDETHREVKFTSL
UniProt Q92879: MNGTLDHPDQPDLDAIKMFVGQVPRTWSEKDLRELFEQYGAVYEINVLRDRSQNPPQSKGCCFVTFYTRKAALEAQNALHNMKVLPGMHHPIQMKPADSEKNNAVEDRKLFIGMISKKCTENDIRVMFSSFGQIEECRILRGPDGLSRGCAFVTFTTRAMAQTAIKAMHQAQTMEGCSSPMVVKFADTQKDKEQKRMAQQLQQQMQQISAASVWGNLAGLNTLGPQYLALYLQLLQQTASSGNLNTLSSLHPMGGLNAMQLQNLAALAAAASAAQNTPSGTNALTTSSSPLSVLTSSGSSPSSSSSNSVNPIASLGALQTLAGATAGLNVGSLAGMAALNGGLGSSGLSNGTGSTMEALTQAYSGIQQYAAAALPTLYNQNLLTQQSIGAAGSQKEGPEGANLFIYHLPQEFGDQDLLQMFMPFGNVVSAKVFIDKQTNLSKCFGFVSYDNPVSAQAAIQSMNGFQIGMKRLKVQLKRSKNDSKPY
UniProt Q9UJX2, whole entry, looked up: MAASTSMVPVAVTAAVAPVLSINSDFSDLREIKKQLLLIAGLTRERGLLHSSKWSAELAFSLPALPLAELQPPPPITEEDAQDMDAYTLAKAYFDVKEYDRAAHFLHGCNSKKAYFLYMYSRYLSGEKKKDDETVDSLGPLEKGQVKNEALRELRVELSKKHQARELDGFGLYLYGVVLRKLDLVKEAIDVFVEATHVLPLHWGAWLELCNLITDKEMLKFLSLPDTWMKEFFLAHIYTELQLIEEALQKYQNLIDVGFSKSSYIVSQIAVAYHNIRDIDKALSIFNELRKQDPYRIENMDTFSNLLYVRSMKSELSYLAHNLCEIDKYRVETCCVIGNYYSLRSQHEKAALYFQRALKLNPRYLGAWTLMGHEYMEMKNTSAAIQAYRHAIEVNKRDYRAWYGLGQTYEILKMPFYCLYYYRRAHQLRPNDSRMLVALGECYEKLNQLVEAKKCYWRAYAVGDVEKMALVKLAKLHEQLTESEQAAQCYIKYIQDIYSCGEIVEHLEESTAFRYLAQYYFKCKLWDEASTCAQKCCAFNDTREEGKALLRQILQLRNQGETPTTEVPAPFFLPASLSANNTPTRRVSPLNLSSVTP
UniProt O94986: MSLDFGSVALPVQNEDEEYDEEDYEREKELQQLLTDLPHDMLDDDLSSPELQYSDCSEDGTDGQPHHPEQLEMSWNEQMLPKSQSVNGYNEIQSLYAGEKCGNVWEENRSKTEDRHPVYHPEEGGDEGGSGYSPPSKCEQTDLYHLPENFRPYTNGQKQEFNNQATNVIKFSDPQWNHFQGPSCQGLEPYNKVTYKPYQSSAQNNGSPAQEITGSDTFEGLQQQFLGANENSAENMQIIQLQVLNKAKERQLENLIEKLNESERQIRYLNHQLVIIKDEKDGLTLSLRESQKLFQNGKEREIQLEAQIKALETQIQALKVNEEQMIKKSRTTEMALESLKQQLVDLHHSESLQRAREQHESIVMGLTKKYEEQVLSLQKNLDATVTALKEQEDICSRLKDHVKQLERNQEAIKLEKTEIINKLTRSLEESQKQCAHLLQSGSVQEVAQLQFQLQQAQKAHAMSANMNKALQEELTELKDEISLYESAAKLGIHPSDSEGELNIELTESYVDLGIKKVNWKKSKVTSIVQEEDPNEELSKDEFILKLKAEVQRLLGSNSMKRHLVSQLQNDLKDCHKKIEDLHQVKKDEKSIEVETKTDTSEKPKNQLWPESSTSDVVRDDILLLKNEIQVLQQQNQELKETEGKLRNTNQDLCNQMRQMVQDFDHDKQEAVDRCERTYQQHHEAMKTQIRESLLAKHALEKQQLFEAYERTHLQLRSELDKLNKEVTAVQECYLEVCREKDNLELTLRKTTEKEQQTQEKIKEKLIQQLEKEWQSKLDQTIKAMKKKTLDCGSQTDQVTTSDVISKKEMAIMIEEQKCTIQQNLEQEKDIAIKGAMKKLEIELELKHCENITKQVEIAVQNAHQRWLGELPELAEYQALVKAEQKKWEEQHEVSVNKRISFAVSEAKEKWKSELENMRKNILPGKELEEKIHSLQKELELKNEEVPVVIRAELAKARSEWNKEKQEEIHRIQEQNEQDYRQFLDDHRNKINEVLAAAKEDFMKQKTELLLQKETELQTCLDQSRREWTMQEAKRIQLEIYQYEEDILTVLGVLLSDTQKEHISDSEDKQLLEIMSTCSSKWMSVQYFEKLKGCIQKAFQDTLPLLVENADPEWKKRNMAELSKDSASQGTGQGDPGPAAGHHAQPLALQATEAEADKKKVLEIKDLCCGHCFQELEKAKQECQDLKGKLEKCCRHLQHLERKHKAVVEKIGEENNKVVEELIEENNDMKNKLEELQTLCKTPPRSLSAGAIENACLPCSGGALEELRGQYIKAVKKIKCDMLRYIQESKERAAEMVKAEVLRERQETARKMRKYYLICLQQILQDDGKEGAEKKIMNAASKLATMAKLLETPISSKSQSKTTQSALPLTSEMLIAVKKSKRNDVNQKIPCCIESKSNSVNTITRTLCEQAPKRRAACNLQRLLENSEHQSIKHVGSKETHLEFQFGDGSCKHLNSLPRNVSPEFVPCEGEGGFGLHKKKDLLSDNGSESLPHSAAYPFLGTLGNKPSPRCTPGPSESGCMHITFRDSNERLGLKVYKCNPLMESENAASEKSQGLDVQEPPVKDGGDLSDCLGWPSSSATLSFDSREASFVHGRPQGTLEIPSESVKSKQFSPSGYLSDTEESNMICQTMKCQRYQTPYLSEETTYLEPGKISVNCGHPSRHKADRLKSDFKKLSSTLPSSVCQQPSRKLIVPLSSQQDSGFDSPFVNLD
UniProt P40227, whole entry, looked up: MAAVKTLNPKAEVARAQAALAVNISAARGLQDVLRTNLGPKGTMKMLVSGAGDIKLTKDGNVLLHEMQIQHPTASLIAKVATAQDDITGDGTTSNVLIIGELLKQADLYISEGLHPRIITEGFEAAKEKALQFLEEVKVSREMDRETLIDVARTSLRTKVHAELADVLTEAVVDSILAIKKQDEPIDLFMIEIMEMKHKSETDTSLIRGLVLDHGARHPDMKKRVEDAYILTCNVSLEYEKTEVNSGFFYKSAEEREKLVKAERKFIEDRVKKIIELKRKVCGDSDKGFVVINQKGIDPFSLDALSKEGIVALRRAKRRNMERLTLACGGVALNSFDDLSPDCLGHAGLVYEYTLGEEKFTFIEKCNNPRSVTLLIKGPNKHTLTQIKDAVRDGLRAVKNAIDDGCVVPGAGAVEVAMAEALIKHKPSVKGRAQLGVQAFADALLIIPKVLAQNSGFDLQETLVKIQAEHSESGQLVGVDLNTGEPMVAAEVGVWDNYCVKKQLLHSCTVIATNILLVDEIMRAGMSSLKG
UniProt P23141: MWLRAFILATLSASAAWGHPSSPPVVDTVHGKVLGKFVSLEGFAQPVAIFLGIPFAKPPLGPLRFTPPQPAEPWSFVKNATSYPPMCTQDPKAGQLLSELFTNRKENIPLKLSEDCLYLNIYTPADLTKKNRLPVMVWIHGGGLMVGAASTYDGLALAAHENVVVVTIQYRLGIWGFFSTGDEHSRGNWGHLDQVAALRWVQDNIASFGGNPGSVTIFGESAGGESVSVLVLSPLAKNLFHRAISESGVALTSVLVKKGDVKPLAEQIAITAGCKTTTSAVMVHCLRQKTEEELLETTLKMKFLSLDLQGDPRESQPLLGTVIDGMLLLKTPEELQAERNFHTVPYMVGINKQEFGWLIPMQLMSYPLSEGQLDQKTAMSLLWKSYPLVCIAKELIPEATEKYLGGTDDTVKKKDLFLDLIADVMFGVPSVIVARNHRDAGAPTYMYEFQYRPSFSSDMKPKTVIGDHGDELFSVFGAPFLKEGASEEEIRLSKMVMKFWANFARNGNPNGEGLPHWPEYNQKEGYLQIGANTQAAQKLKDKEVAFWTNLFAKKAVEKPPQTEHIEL
UniProt O95319: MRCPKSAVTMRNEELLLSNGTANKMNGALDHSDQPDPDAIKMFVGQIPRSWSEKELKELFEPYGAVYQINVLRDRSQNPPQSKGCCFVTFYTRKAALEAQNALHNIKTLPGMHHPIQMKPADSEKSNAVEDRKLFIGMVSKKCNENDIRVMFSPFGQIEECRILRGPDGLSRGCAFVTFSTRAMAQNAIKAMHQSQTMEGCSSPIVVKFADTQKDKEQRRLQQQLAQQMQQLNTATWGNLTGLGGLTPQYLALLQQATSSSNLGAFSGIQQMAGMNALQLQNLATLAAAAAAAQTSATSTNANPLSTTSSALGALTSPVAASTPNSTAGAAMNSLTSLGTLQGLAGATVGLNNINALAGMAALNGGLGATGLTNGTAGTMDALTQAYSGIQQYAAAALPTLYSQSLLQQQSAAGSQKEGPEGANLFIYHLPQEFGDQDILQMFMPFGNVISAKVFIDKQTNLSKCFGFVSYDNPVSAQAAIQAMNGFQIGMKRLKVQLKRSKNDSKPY
UniProt P30260, whole entry, looked up: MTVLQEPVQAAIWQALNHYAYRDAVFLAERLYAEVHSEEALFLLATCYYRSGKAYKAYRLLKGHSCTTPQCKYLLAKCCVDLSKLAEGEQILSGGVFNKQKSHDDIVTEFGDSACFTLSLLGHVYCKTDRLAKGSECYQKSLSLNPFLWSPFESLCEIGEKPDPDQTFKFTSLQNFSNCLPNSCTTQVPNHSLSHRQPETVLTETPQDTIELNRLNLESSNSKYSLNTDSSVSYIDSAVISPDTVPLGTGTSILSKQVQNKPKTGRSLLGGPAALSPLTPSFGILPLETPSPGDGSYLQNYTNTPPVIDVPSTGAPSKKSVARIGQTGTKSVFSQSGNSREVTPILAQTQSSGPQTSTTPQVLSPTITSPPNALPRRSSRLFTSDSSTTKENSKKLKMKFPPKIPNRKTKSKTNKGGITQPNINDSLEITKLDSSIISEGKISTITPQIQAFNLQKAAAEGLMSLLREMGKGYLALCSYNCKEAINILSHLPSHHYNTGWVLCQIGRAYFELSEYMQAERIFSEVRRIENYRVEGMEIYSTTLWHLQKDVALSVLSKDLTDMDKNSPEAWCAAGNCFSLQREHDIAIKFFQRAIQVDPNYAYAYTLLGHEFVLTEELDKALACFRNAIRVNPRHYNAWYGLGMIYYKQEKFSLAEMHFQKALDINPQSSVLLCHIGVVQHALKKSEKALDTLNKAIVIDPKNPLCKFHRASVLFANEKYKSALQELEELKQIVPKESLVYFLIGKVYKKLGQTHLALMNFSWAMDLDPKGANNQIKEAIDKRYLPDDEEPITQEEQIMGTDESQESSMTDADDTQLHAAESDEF
UniProt P11802: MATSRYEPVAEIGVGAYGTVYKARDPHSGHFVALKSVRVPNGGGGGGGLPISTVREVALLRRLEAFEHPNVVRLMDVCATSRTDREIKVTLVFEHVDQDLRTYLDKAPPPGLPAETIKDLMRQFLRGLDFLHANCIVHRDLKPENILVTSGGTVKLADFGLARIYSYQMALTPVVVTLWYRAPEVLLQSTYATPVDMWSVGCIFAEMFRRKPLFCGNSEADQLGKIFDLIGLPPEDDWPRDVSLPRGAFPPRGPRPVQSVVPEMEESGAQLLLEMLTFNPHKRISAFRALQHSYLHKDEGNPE

Compound: Cc1cc(ccc1-c1ccccc1)C(=O)N1CCCN(CC1)C(=O)CCl [compound 10]
Assay: probe-labelled cysteine peptide fold change vs DMSO (competition) (log2 fold change); higher = less target engagement (more negative = stronger competition)
Settings: 10 µM; THP-1; incubation time: 4 h
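Note: competitive profiling in live THP-1 cells: cysteine peptides tagged with an iodoacetamide desthiobiotin (IA-DTB) probe, intensity after compound treatment relative to DMSO-treated cells.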

| Target | probe-labelled cysteine peptide fold change |
| --- | --- |
| CCT5_P48643_440_CPTLEQYAMR (UniProt P48643) | -0.19 |
| CDC37_Q16543_336_CIDSGLWVPNSK (UniProt Q16543) | 0.17 |
| CEP250_Q9BV73_1740_EVECQQEHIHELQELK (UniProt Q9BV73) | -0.0757 |
| CENPF_P49454_503_EVCHLEAELK (UniProt P49454) | 0.255 |
| CENPF_P49454_752_CYQDLHAEYESLR (UniProt P49454) | 0.259 |
| CD46_P15529_157_GSVAIWSGKPPICEK (UniProt P15529) | -0.205 |
| CD68_P34810_207_VQGSCEGAHPHLLLSFPYGHLSFGFMQDLQQK (UniProt P34810) | 0.0497 |
| CENPF_P49454_752_CYQDLHAEYESLRDLLK (UniProt P49454) | 0.0879 |
| CENPV_Q7Z7K6_152+154_HTGGCHCGAVR (UniProt Q7Z7K6) | 0.00162 |
| CDC20_Q12834_403_IWNVCSGACLSAVDAHSQVCSILWSPHYK (UniProt Q12834) | 0.3 |
| CD109_Q6YHK3_1302_ENKDDLNHVDLNVCTSFSGPGR (UniProt Q6YHK3) | 0.108 |
| CENPK_Q9BS16_66_CLTAELSQWQK (UniProt Q9BS16) | 0.0921 |
| CELF1_Q92879_119_CTENDIR (UniProt Q92879) | 0.0497 |
| CD151_P48509_192_TVVALCGQR (UniProt P48509) | -0.059 |
| CCT8_P50990_347_LTPPVLEEMGHCDSVYLSEVGDTQVVVFKHEKEDGAISTIVLR (UniProt P50990) | -0.293 |
| CDC23_Q9UJX2_489_LHEQLTESEQAAQCYIK (UniProt Q9UJX2) | -0.0653 |
| CD38_P28907_82_HVDCQSVWDAFK (UniProt P28907) | -0.000509 |
| CD53_P19397_170_KVEGCYAK (UniProt P19397) | -0.25 |
| CEP152_O94986_791_TLDCGSQTDQVTTSDVISK (UniProt O94986) | -0.00536 |
| CEP350_Q5VT06_2412_DSQSCR (UniProt Q5VT06) | -0.469 |

| Target | probe-labelled cysteine peptide fold change |
| --- | --- |
| CCT7_Q99832_310_LPIGDVATQYFADRDMFCAGRVPEEDLKR (UniProt Q99832) | -0.232 |
| CENPF_P49454_1188_NQCNFKPQMDLEVK (UniProt P49454) | -0.0482 |
| CFAP20_Q9Y6A4_61_ITDNDIQSLVLEIEGTNVSTTYITCPADPKK (UniProt Q9Y6A4) | 0.0394 |
| CCT6A_P40227_233_RVEDAYILTCNVSLEYEK (UniProt P40227) | 0.118 |
| CD40_P25942_116+119_GTSETDTICTCEEGWHCTSEACESCVLHR (UniProt P25942) | -0.262 |
| CDC73_Q6P1J9_145_IEDEECVRLDK (UniProt Q6P1J9) | -0.235 |
| CCT8_P50990_187_LIAQACVSIFPDSGHFNVDNIR (UniProt P50990) | 0.0716 |
| CDK5_Q00535_83_LTLVFEFCDQDLK (UniProt Q00535) | -0.00543 |
| CES1_P23141_390_SYPLVCIAK (UniProt P23141) | 0.304 |
| CD63_P08962_177_NRVPDSCCINVTVGCGINFNEK (UniProt P08962) | 0.0454 |
| CDK5_Q00535_94_YFDSCNGDLDPEIVK (UniProt Q00535) | -0.0444 |
| CFAP20_Q9Y6A4_160_VQIHANCR (UniProt Q9Y6A4) | 0.0969 |
| CEP170_Q5SW79_30_EMIFVGRDDCELMLQSR (UniProt Q5SW79) | -0.075 |
| CELF2_O95319_174_GCAFVTFSTR (UniProt O95319) | 0.0275 |
| CDC27_P30260_115+126_SHDDIVTEFGDSACFTLSLLGHVYCK (UniProt P30260) | 0.494 |
| CDC23_Q9UJX2_109_AAHFLHGCNSK (UniProt Q9UJX2) | -0.107 |
| CD4_P01730_41_KGDTVELTCTASQK (UniProt P01730) | -0.413 |
| CDK4_P11802_135_GLDFLHANCIVHR (UniProt P11802) | -0.0105 |
| CELF2_O95319_201_AMHQSQTMEGCSSPIVVK (UniProt O95319) | 0.00477 |

Same assay, conditions: 50 µM; THP-1; incubation time: 4 h

| Target | probe-labelled cysteine peptide fold change |
| --- | --- |
| CCT5_P48643_440_CPTLEQYAMR (UniProt P48643) | 0.0642 |
| CDC37_Q16543_336_CIDSGLWVPNSK (UniProt Q16543) | 0.0591 |
| CEP250_Q9BV73_1740_EVECQQEHIHELQELK (UniProt Q9BV73) | -0.0757 |
| CENPF_P49454_503_EVCHLEAELK (UniProt P49454) | 0.303 |
| CENPF_P49454_752_CYQDLHAEYESLR (UniProt P49454) | 0.41 |
| CD46_P15529_157_GSVAIWSGKPPICEK (UniProt P15529) | -0.0545 |
| CD68_P34810_207_VQGSCEGAHPHLLLSFPYGHLSFGFMQDLQQK (UniProt P34810) | 0.0854 |
| CENPF_P49454_752_CYQDLHAEYESLRDLLK (UniProt P49454) | 0.147 |
| CENPV_Q7Z7K6_152+154_HTGGCHCGAVR (UniProt Q7Z7K6) | 0.119 |
| CDC20_Q12834_403_IWNVCSGACLSAVDAHSQVCSILWSPHYK (UniProt Q12834) | 0.258 |
| CD109_Q6YHK3_1302_ENKDDLNHVDLNVCTSFSGPGR (UniProt Q6YHK3) | -0.288 |
| CENPK_Q9BS16_66_CLTAELSQWQK (UniProt Q9BS16) | -0.0128 |
| CELF1_Q92879_119_CTENDIR (UniProt Q92879) | 0.276 |
| CD151_P48509_192_TVVALCGQR (UniProt P48509) | -0.0247 |
| CCT8_P50990_347_LTPPVLEEMGHCDSVYLSEVGDTQVVVFKHEKEDGAISTIVLR (UniProt P50990) | -0.714 |
| CDC23_Q9UJX2_489_LHEQLTESEQAAQCYIK (UniProt Q9UJX2) | -0.11 |
| CD38_P28907_82_HVDCQSVWDAFK (UniProt P28907) | 0.256 |
| CD53_P19397_170_KVEGCYAK (UniProt P19397) | -0.0711 |
| CEP152_O94986_791_TLDCGSQTDQVTTSDVISK (UniProt O94986) | -0.0146 |
| CEP350_Q5VT06_2412_DSQSCR (UniProt Q5VT06) | -0.521 |

| Target | probe-labelled cysteine peptide fold change |
| --- | --- |
| CCT7_Q99832_310_LPIGDVATQYFADRDMFCAGRVPEEDLKR (UniProt Q99832) | -0.817 |
| CENPF_P49454_1188_NQCNFKPQMDLEVK (UniProt P49454) | -0.261 |
| CFAP20_Q9Y6A4_61_ITDNDIQSLVLEIEGTNVSTTYITCPADPKK (UniProt Q9Y6A4) | 0.0434 |
| CCT6A_P40227_233_RVEDAYILTCNVSLEYEK (UniProt P40227) | 0.3 |
| CD40_P25942_116+119_GTSETDTICTCEEGWHCTSEACESCVLHR (UniProt P25942) | -0.0416 |
| CDC73_Q6P1J9_145_IEDEECVRLDK (UniProt Q6P1J9) | -0.426 |
| CCT8_P50990_187_LIAQACVSIFPDSGHFNVDNIR (UniProt P50990) | 0.0493 |
| CDK5_Q00535_83_LTLVFEFCDQDLK (UniProt Q00535) | 0.283 |
| CES1_P23141_390_SYPLVCIAK (UniProt P23141) | -0.0814 |
| CD63_P08962_177_NRVPDSCCINVTVGCGINFNEK (UniProt P08962) | 0.0187 |
| CDK5_Q00535_94_YFDSCNGDLDPEIVK (UniProt Q00535) | 0.175 |
| CFAP20_Q9Y6A4_160_VQIHANCR (UniProt Q9Y6A4) | 0.272 |
| CEP170_Q5SW79_30_EMIFVGRDDCELMLQSR (UniProt Q5SW79) | 0.0343 |
| CELF2_O95319_174_GCAFVTFSTR (UniProt O95319) | 0.0429 |
| CDC27_P30260_115+126_SHDDIVTEFGDSACFTLSLLGHVYCK (UniProt P30260) | 0.00837 |
| CDC23_Q9UJX2_109_AAHFLHGCNSK (UniProt Q9UJX2) | 0.191 |
| CD4_P01730_41_KGDTVELTCTASQK (UniProt P01730) | -0.0824 |
| CDK4_P11802_135_GLDFLHANCIVHR (UniProt P11802) | -0.265 |
| CELF2_O95319_201_AMHQSQTMEGCSSPIVVK (UniProt O95319) | -0.115 |
